Most values lie at the floor of the assay. Slopes are relative: functional sequences can read slightly below zero.
tested on: Saccharomyces cerevisiae PS128 hsf1 delta, HSF1(1-493) fusion; assay: growth estimate (transactivation domain function in HSF1 fusion, heat-shock survival) (a.u. (slope of normalised read count over time)); higher = stronger growth at 37°C, i.e. more transactivation activity; details: library: random library
Method: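 Random 60-nt DNA library encoding peptides of up to 20 aa, fused to the C-terminus of yeast HSF1 residues 1-493 (C-terminal TAD deleted) and expressed from the native HSF1 promoter on a CEN plasmid in hsf1-deleted S. cerevisiae PS128. Cells were selected at 37°C on -trp 5-FOA plates for 0, 2, 4, 6 and 8 days and amplicons were sequenced. Growth estimate is the slope of a robust linear fit of total-sum-normalised read counts (normalised to the first time point) over time, using at least 2 replicates. Sequences are classed functional (TAD activity) above a threshold of -0.13, set from stop-codon control sequences.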

Substance	growth estimate
HPGPR	< -0.25
VDFISMSNPLW	< -0.25
QCCPGFQEVFWKMWLGAMDR	< -0.25
CHVLKKNRGLHRQGLERICD	< -0.25
PHLYLVSGGRFVKLIQFR	< -0.25
SKCLCCAPTLTKQWASDSLG	< -0.25
SSTRARKVYNII	< -0.25
WWSLLFSDL	< -0.25
IRLTAEAWLLPVDVGITGQR	< -0.25
LGVTKSMRASWAVSWI	< -0.25
ARRLSCMSEILRRHTIAELK	< -0.25
GLVAAFWNNFLCEKGGTKIL	< -0.25
GAGSTGTQERLYSSEF	< -0.25
YISRPAMVRGIRVRNITFRY	< -0.25
VYPCD	< -0.25
VAGAALAFIVRPGRMNASMG	< -0.25
IQNSSGLSSHDLTDCTEGCR	< -0.25
WLASDEI	< -0.25
WGPTVVW	< -0.25
IAIRHYKLTIQGL	-0.246
DYGMLAMGASHREGSSWSLR	< -0.25
VYGVREIDWFSLRIVDAHVY	< -0.25
INL	< -0.25
GYNSCCEIFFPRRGVAWPSG	< -0.25

Laid out differently: results already given.
GLVAAFWNNFLCEKGGTKIL
  growth estimate: < -0.25
GAGSTGTQERLYSSEF
  growth estimate: < -0.25
IAIRHYKLTIQGL
  growth estimate: -0.246
GYNSCCEIFFPRRGVAWPSG
  growth estimate: < -0.25

Following part

Substance	growth estimate
SCSIRRG	< -0.25
RGRNKAGGSRWRPHSTLGRS	< -0.25
IGISHVRLSNHISNCVCGTW	< -0.25
TNYAGSHDDPRTSMMAV	< -0.25
DSRPQPRFRVCVGGK	< -0.25
CDGLPFPTYRYYGFAHYRQS	< -0.25
CTLDETIEDSRWESPRHDSN	< -0.25
SHTSRIGQLS	< -0.25
YVRSTLEQSYTT	< -0.25
VKV	< -0.25
PGTLTANSQVTRIYVGFPSG	< -0.25
CYARRNADIPKYFPSLAQRF	< -0.25
SVSAVTMKIIRAMDA	< -0.25
RVLKISSHGRGS	< -0.25
GEGVPHCQSVSGSGTGFSEI	< -0.25
DLTWAPICGPHEHGHACASS	< -0.25
KLNGPRGHVTGLHWSPSSVG	< -0.25
VYAKPPIFR	< -0.25
HDGRDGHDLTPRRTLALAGK	< -0.25
RLL	< -0.25
HLPPRNQLMSEKSECSPWPS	< -0.25
FLTRAHCIKPVCVPSKHGAN	< -0.25
SEWVKVSSALANYLGCQFYR	< -0.25
TVVCRRA	< -0.25

Substance	growth estimate
ESTCVDSG	-0.189
LILRRLPAQLRPARRGHQHL	< -0.25
NIGKDCSHPMLQSRARASNT	< -0.25
AGNFGKICAREAHMSTPEAG	< -0.25
ERVRITNLGRLYEPWSVLKR	< -0.25
GRGWDCQRTRSQRLLYYRRS	< -0.25
LGIAQSEVSRFTAVAIFRRA	< -0.25
PHREGISMKS	< -0.25
PIYYLRNSFPYSPVSNRYSG	< -0.25
HSLRA	< -0.25
PFYAPRFGRFKSLWSDRNGS	-0.245
LKGVMCVHRCRRGHRTYVAC	< -0.25
PFKWCWNCGVHCVTDKIHST	< -0.25
ILI	< -0.25
EIFGIMNQCQFPSLKDGQMR	< -0.25
CRHNSVRHSTYS	< -0.25
AEGWRGARGNCCHHSCAFH	< -0.25
VLRIGCRATGGLHSFLNYVG	< -0.25
TDSTAPPPALTLLSASPVQG	< -0.25
NGAERLGAHPARGSRATMGR	< -0.25
DLNCAHAPSALVATCPPLTC	< -0.25
PAN	< -0.25
GHIFISHVPVTLLGISKGGS	< -0.25
AGLA	-0.237

Some of the entries above in a different format.
Substance | growth estimate
VLRIGCRATGGLHSFLNYVG | < -0.25
TDSTAPPPALTLLSASPVQG | < -0.25

The list continues:

Substance	growth estimate
GTTRCPDTHKVREQGPWAIL	< -0.25
RTGVPG	< -0.25
RTFANICSWTSDLLFHEPPS	< -0.25
LLSFKQLVPPRVDNGAY	< -0.25
CKVVVAELVVSVGLYNLGQR	< -0.25
LPNLQRIKSSGLRTSDSLQR	< -0.25
RFRSLVVSSPHAEVRKLCRS	< -0.25
CGEHKQLE	< -0.25
PTE	< -0.25
LPVRITTLCLFITWPFEGAP	< -0.25
YASSTAS	< -0.25
TFERGDGGERYCFGSIHISI	< -0.25
MLRFALRCSGLPTVSI	< -0.25
HSIDFELCYGLHPVHERCYT	< -0.25
RDASVGHLMHVGAGTLSAKG	< -0.25
SMQEEGGRAQSEPRCRRYTR	< -0.25
RHVGRPDGMD	< -0.25
YSRLRVY	< -0.25
RVLRERTIAGRRILLFHLQP	< -0.25
LFPSHNRLVIAPGLPVPAVR	-0.243
VGKPSQRRLDRGLLTERDHE	< -0.25
TTRMKDRQMRPLGERRRSNG	< -0.25
EVSGLEPSPVYVHPRTTN	< -0.25
VDGTWGVHTVDMSLHRSRST	< -0.25

Substance	growth estimate
WGLTRSFRK	< -0.25
ARQREKGATRNATSGPDRNN	< -0.25
SVSR	< -0.25
AGLTSISIDIGTLCRILCLL	< -0.25
GARMLTVADFLNNGVYLF	< -0.25
TSFTLGHMTGQHASISLGAT	< -0.25
WDKYQAFVRVCPMG	-0.246
NRSIRSVWHTT	< -0.25
KLWSSLIGIR	< -0.25
EWYRGCQASTVVFSSRTTGA	< -0.25
RLLGNLLP	-0.19
TAGAAR	< -0.25
AEDANRGQHNSSVSPPCAGL	< -0.25
RKITRGWGGRRAPYSDSLPT	< -0.25
TLKGD	< -0.25
CRGATPNESHRCVSFAYDTE	< -0.25
RRA	< -0.25
QSGSHSSPYEYLGGDVTFSG	-0.109
ACR	< -0.25
VVL	< -0.25
MTKGRVDY	< -0.25
IIRLTAGSV	< -0.25
LNNNVLSFV	< -0.25
NLEGLPGIP	-0.134

Substance	growth estimate
SGTGLSPAVRLMAGLFRRAP	< -0.25
PGNN	< -0.25
HAVKAQNTARGDTPGQSIIG	< -0.25
VKTC	< -0.25
TQLIAGGPYEGSRNSKRAGR	< -0.25
YSLRRKRCISFPKMSVLRLV	< -0.25
SVPYAVARGRSTWVLYC	< -0.25
GVWRSRHWWRVLRMDSMGIV	< -0.25
VIGV	< -0.25
LSHSFGYRTLQGEWEACEYT	< -0.25
TNSTRGRVVRACLCSWHRGL	< -0.25
ETHCPTGSWARSLEGRNGLH	< -0.25
VTRRC	< -0.25
RRRGWAVEAARRVESRLMGP	< -0.25
LLDPTYVTSVVCVRQPRKVR	< -0.25
PRPDLIIE	< -0.25
LFMGGWFRARLVTRLALEQL	< -0.25
VPKPR	< -0.25
AGTLHLWDGAS	< -0.25
LGFKFAYRCLRLT	< -0.25
GQTNLCRSPTLWRYGLARNV	< -0.25
KMPSRVNPYHNTAPTLMYVV	< -0.25
RANRCFQNRSKEARPGCR	< -0.25

From the supplement of paper PMC5949888
